According to US20230212587A1, “Mutant Hydroxyphenylpyruvate Dioxygenase Polypeptide, Encoding Gene Thereof and Use Therefor” (Beijing Dabeinong Biotechnology Co., Ltd., priority 2019, published 2023):
Some entries share one result that the patent states for a list of compounds. Some compounds share one range, which may span the group rather than tell each member.

B1: AsHPPDm-F372A-A110: Avena sativa HPPD with F372A and deletion of alanine at position 110, SEQ ID NO: 412 (protein)
chain: MPPTPATATGAAAAAVTPEHAARSFPRVVRVNPRSDRFPVLSFHHVELWCADAASAAGRFSFALGAPLAARSDLSTGNSAHASLLLRSGALAFLFTAPYAPPPQEAATAATASIPSFSADAARTFAAAHGLAVRSVGVRVADAAEAFRVSVAGGARPAFAPADLGHGFGLAEVELYGDVVLRFVSYPDETDLPFLPGFERVSSPGAVDYGLTRFDHVVGNVPEMAPVIDYMKGFLGFHEFAEFTAEDVGTTESGLNSVVLANNSEAVLLPLNEPVHGTKRRSQIQTYLEYHGGPGVQHIALASNDVLRTLREMRARTPMGGFEFMAPPQAKYYEGVRRIAGDVLSEEQIKECQELGVLVDRDDQGVLLQIATKPVGDRPTFFLEMIQRIGCMEKDEVGQEYQKGGCGGFGKGNFSELFKSIEDYEKSLEVKQSVVAQKS
modifications: AsHPPDm-F372A-A110 Amino Acid Sequence
B2: PfHPPDm-F372A-G413W: Pseudomonas fluorescens HPPD with F372A and G336W (position 413 of SEQ ID NO: 1), SEQ ID NO: 416 (protein)
chain: MADLYENPMGLMGFEFIEFASPTPGTLEPIFEIMGFTKVATHRSKNVHLYRQGEINLILNNEPNSIASYFAAEHGPSVCGMAFRVKDSQKAYNRALELGAQPIHIDTGPMELNLPAIKGIGGAPLYLIDRFGEGSSIYDIDFVYLEGVERNPVGAGLKVIDHLTHNVYRGRMVYWANFYEKLFNFREARYFDIKGEYTGLTSKAMSAPDGMIRIPLNEESSKGAGQIEEFLMQFNGEGIQHVAFLTDDLVKTWDALKKIGMRFMTAPPDTYYEMLEGRLPDHGEPVDQLQARGILLDGSSVEGDKRLLLQIASETLMGPVFFEFIQRKGDDGFGEWNFKALFESIERDQVRRGVLTAD
modifications: PfHPPDm-F372A-G413W Amino Acid Sequence
B3: PfHPPDm-F372A-02: Pseudomonas fluorescens HPPD mutant F372A, SEQ ID NO: 30 (protein)
chain: MADLYENPMGLMGFEFIEFASPTPGTLEPIFEIMGFTKVATHRSKNVHLYRQGEINLILNNEPNSIASYFAAEHGPSVCGMAFRVKDSQKAYNRALELGAQPIHIDTGPMELNLPAIKGIGGAPLYLIDRFGEGSSIYDIDFVYLEGVERNPVGAGLKVIDHLTHNVYRGRMVYWANFYEKLFNFREARYFDIKGEYTGLTSKAMSAPDGMIRIPLNEESSKGAGQIEEFLMQFNGEGIQHVAFLTDDLVKTWDALKKIGMRFMTAPPDTYYEMLEGRLPDHGEPVDQLQARGILLDGSSVEGDKRLLLQIASETLMGPVFFEFIQRKGDDGFGEGNFKALFESIERDQVRRGVLTAD
modifications: PfHPPDm-F372A Amino Acid Sequence

system: Arabidopsis thaliana T1 plants; test: Topramezone tolerance of transgenic Arabidopsis thaliana T1 plants (pesticide damage grade by bleached leaf area, score, resistance evaluation); assay type: in vivo; details: Arabidopsis thaliana T1 plants sprayed with topramezone, all tested concentrations
Source text: The Arabidopsisthaliana T1 plants into which the AsHPPDm-F372A-02 nucleotide sequence was introduced, Arabidopsis thaliana T1 plants into which the AsHPPD-02 nucleotide sequence was introduced and wild-type Arabidopsisthaliana plants (18 days after sowing) were sprayed with topramezone at four different concentrations, i.e., 25 g ai/ha (one-fold field concentration, 1×), 50 g ai/ha (two-fold field concentration, 2×), 100 g ai/ha (four-fold field concentration, 4×) and 0 g ai/ha (water, 0×) to determine the tolerance of Arabidopsisthaliana to the herbicide. The degree of damage caused by the herbicide was measured for each plant according to the proportion of bleached leaf area (the proportion of bleached leaf area=bleached leaf area/total leaf area×100%) 7 days after spraying (7 DAT): the case where there is basically no bleached phenotype is defined as grade 0, the case where the proportion of bleached leaf area is less than 50% is defined as grade 1,the case where the proportion of bleached leaf area is more than 50% is defined as grade 2, and the case where the proportion of bleached leaf area is 100% grade is defined as grade 3.
(§1) According to the method as described above in point 6 of Example 1, the aforementioned Arabidopsisthaliana T1 plants and wild-type Arabidopsisthaliana plants (18 days after sowing) were sprayed with topramezone at three different concentrations respectively, i.e., 25 g ai/ha (one-fold field concentration, 1×), 100 g ai/ha (four-fold field concentration, 4×) and 0 g ai/ha(water, 0×) to detect the tolerance of Arabidopsisthaliana to the herbicide.
as §1, with “1x),” for “1×),”, “4x)” for “4×)”, “ai/ha (water, 0x)” for “ai/ha(water, 0×)”, “herbicide. […]” for “herbicide.”

Molecule	resistance evaluation stated in the text
B1	highly resistant (highly resistant plants (scores 0-15))
B2	highly resistant (highly resistant plants (scores 0-15))
B3	highly resistant (highly resistant plants (scores 0-15))
